# The other results are listed elsewhere or left out.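 The calls were made as follows: active = dose-dependent thermal stabilisation significant by F-test of dose-response against flat model at 10% FDR; inactive = not significant.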
# Amino acid sequences for entries named in this document (tags omitted). A change or cut given only in a name is not applied to a line headed by its entry.
# UniProt P60842, whole entry: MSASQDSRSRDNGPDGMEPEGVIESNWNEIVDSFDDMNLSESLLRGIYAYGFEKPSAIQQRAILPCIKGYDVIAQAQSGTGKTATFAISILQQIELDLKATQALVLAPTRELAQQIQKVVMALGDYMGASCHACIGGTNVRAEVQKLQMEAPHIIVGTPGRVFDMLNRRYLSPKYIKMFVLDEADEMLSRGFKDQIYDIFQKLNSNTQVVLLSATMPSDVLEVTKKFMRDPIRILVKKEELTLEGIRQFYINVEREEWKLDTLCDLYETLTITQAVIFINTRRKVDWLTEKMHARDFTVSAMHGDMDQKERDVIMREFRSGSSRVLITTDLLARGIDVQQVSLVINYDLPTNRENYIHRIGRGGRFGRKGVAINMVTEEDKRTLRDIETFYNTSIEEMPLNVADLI
# UniProt Q9NPD3, whole entry: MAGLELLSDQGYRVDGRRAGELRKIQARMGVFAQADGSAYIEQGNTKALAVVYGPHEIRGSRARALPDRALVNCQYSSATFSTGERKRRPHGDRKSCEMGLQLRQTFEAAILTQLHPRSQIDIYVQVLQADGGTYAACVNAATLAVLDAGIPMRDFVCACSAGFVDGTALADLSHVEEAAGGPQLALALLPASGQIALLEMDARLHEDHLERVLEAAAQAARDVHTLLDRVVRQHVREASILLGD
# UniProt Q92979: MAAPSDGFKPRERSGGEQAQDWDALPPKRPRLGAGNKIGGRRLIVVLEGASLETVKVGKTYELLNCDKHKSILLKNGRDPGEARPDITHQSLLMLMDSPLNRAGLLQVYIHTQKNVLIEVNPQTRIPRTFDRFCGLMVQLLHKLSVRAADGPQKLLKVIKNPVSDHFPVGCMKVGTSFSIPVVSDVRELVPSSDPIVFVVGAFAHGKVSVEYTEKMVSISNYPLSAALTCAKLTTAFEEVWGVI
# UniProt O95684: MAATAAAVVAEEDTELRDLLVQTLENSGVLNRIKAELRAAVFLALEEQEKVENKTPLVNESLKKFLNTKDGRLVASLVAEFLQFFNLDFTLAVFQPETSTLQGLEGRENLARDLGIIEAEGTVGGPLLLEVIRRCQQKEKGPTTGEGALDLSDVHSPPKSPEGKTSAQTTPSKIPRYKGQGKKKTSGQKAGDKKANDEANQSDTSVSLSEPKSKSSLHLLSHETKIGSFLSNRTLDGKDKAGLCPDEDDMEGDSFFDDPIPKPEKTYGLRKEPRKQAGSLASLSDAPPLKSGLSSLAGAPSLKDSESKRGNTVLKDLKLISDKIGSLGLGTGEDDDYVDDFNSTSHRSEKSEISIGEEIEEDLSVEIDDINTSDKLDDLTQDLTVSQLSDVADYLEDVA
# UniProt Q9NYF3: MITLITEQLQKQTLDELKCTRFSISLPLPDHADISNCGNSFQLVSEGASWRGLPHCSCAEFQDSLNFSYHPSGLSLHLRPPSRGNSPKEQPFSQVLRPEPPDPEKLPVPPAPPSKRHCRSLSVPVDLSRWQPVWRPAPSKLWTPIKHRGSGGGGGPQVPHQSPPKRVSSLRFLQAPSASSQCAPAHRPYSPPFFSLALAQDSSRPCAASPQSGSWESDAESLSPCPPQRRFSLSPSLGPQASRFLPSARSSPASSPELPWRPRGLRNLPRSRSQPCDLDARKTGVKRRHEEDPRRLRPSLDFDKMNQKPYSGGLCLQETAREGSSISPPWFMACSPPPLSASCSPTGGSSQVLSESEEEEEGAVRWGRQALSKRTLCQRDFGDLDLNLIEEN
# UniProt Q86X53: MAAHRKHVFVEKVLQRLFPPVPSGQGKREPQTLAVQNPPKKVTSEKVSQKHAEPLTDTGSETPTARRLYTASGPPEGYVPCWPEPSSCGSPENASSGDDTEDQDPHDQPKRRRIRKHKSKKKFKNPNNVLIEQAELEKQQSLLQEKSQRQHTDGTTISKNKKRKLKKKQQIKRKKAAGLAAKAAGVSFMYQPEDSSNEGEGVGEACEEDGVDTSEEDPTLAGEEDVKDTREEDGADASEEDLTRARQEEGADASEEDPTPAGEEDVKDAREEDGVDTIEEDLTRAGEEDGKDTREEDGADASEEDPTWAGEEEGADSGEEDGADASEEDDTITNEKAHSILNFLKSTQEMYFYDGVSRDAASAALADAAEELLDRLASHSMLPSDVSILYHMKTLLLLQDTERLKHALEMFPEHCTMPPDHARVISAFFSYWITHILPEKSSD
# UniProt P13804: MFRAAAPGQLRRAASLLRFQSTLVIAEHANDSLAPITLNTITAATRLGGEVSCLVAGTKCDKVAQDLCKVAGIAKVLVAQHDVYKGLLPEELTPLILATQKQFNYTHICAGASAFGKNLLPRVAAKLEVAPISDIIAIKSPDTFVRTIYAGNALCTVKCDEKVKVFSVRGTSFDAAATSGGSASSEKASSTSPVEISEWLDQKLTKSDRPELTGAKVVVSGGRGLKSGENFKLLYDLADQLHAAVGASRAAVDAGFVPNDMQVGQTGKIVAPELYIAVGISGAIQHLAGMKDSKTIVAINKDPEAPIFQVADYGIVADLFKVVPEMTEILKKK
# UniProt P34913, whole entry: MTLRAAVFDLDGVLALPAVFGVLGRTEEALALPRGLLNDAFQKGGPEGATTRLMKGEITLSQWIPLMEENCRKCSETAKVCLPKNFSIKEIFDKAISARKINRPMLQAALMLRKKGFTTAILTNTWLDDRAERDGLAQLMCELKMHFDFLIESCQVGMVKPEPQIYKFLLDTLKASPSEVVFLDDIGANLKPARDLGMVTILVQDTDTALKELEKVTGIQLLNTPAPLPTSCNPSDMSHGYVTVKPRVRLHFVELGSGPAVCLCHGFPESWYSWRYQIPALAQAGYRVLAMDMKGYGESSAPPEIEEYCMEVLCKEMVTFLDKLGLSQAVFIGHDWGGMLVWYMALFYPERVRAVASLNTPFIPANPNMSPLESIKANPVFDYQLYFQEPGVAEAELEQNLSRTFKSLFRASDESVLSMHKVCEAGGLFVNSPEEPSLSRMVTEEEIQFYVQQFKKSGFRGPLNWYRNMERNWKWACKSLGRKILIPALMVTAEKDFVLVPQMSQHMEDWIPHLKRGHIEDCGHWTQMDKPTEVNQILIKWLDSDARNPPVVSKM
# UniProt Q9H5X1: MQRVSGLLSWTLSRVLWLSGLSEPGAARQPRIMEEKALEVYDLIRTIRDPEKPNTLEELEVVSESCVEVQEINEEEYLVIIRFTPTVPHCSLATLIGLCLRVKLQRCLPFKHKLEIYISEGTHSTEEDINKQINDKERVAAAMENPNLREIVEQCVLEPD
# UniProt Q96A65: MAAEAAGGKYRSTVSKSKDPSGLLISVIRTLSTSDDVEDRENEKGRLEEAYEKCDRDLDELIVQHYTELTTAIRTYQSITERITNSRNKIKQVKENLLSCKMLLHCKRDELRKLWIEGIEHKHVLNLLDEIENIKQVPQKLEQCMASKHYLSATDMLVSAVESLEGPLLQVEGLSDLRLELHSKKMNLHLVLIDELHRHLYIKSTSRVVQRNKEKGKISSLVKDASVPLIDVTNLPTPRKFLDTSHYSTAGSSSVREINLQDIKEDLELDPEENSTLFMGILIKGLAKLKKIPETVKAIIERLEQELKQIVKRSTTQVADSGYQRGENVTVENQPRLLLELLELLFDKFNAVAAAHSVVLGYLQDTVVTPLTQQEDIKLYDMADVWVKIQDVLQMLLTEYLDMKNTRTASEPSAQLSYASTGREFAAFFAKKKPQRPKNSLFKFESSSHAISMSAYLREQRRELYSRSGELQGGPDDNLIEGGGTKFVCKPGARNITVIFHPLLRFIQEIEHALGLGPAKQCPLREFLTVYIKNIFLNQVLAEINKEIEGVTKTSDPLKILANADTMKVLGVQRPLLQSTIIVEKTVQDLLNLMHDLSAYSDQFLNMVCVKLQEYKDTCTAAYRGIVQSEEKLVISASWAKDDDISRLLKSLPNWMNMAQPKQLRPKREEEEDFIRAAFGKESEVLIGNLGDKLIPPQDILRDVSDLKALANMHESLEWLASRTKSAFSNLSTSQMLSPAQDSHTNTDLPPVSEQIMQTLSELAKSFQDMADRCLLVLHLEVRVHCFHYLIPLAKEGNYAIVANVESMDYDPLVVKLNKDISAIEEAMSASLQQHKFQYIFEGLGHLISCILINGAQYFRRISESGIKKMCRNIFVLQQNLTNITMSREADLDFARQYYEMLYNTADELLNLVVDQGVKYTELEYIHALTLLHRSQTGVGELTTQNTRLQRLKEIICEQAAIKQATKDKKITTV
# UniProt O15372, whole entry: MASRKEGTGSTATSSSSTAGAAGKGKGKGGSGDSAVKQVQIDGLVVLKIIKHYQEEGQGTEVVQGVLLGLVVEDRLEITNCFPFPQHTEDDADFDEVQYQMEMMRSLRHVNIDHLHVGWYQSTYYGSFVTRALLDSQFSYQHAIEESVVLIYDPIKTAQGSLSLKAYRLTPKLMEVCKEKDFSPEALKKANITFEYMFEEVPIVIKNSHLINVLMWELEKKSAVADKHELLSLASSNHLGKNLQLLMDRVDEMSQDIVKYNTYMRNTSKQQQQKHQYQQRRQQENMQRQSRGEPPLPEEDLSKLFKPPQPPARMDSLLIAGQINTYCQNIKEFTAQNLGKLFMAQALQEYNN
# UniProt Q7Z2Z2: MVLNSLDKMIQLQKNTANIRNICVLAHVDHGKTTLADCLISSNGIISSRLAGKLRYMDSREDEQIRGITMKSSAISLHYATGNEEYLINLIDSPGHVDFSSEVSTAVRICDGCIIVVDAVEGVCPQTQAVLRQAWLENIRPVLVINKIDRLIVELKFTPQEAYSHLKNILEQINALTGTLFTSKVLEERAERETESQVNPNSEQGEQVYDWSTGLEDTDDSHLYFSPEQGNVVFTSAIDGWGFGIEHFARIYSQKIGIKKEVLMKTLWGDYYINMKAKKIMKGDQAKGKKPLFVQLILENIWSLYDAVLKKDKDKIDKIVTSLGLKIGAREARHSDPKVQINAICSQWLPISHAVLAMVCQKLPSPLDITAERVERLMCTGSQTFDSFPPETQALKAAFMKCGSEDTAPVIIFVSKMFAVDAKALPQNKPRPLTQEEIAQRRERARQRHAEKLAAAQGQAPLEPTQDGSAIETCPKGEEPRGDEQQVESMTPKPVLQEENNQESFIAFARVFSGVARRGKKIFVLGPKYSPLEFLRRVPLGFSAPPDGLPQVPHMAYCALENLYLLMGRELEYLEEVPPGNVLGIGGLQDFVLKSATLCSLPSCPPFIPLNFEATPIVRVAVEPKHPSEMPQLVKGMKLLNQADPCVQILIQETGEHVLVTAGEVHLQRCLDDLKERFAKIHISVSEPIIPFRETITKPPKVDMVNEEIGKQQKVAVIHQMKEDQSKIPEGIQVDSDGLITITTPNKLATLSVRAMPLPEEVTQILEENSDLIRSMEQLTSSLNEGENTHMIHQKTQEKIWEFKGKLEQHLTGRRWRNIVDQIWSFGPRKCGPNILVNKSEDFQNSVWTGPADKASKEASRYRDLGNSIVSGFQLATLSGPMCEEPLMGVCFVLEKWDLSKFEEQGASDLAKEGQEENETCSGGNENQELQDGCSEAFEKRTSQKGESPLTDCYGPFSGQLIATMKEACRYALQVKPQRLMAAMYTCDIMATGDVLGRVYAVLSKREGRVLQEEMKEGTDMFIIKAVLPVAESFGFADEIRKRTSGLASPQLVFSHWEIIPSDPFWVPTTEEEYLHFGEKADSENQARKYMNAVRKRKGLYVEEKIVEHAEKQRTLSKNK
# UniProt P07992: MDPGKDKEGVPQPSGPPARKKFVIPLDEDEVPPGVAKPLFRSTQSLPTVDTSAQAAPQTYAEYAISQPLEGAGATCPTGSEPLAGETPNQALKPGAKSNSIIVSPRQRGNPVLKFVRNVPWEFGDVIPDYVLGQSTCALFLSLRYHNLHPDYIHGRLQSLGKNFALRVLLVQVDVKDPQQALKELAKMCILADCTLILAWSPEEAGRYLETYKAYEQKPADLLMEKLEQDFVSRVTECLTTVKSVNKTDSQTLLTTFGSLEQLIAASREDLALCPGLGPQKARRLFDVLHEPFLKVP
# UniProt Q9NRD1: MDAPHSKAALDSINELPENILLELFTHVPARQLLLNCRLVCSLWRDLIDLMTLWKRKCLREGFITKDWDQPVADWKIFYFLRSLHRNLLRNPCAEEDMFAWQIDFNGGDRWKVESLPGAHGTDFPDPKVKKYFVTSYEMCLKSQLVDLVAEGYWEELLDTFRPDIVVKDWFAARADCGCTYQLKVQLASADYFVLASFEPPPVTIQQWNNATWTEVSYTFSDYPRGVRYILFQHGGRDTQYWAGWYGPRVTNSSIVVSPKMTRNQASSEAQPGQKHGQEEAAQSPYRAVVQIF
# UniProt Q9NVF7: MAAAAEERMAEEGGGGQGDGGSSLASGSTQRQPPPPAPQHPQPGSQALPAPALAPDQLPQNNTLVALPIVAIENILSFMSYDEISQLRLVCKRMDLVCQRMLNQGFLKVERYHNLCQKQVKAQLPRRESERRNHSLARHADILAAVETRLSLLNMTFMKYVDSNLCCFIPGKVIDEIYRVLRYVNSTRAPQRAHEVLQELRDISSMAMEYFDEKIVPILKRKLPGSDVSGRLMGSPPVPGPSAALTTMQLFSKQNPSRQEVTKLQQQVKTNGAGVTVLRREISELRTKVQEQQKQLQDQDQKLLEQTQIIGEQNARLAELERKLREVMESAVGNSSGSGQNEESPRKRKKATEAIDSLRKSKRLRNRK
# Compound: Nc1nc2c(ncn2[C@@H]2O[C@H](COP(=O)(O)OP(=O)(O)OP(=O)(O)O)[C@@H](O)[C@H]2O)c(=O)[nH]1
# Experiment: dose-dependent thermal stabilisation call (2D-TPP, DLPTP, 10% FDR) (binary (1 = stabilised)); higher = stabilised by the compound
# Settings: system: Jurkat gel-filtered lysate; concentration range 1-500 µM
row,Target,dose-dependent thermal stabilisation call
1,EIF4A1 (UniProt P60842),inactive: 0
2,EXOSC4 (UniProt Q9NPD3),inactive: 0
3,EMG1 (UniProt Q92979),inactive: 0
4,EIF4A2 (UniProt Q14240),inactive: 0
5,FAT1 (UniProt Q14517),inactive: 0
6,FN3KRP (UniProt Q9HA64),inactive: 0
7,ERH (UniProt P84090),inactive: 0
8,FGFR1OP (UniProt O95684),inactive: 0
9,FNIP1 (UniProt Q8TF40),inactive: 0
10,FAM53C (UniProt Q9NYF3),inactive: 0
11,FEN1 (UniProt P39748),inactive: 0
12,ERICH1 (UniProt Q86X53),inactive: 0
13,FSD1 (UniProt Q9BTV5),active: 1
14,ETFA (UniProt P13804),inactive: 0
15,EIF2B4 (UniProt Q9UI10),inactive: 0
16,EPHX2 (UniProt P34913),inactive: 0
17,EIF1AD (UniProt Q8N9N8),inactive: 0
18,FERMT3 (UniProt Q86UX7),inactive: 0

row,Target,dose-dependent thermal stabilisation call
1,EXOC1 (UniProt Q9NV70),inactive: 0
2,FAM117A (UniProt Q9C073),inactive: 0
3,FAM96A (UniProt Q9H5X1),inactive: 0
4,EXOC4 (UniProt Q96A65),inactive: 0
5,FCHO1 (UniProt O14526),inactive: 0
6,EXOC2 (UniProt Q96KP1),inactive: 0
7,EIF3H (UniProt O15372),inactive: 0
8,EXOC7 (UniProt Q9UPT5),inactive: 0
9,EIF3C (UniProt Q99613),inactive: 0
10,ERI3 (UniProt O43414),inactive: 0
11,FARSB (UniProt Q9NSD9),inactive: 0
12,ERP44 (UniProt Q9BS26),inactive: 0
13,EFL1 (UniProt Q7Z2Z2),inactive: 0
14,ERCC1 (UniProt P07992),inactive: 0
15,FBXO6 (UniProt Q9NRD1),active: 1
16,FBXO28 (UniProt Q9NVF7),inactive: 0
17,FAM208B (UniProt Q5VWN6),inactive: 0
18,EIF3E (UniProt P60228),inactive: 0

# Reformatted with tabs: part of the list above
row	Target	dose-dependent thermal stabilisation call
11	FARSB (UniProt Q9NSD9)	inactive: 0
12	ERP44 (UniProt Q9BS26)	inactive: 0

# — the supplement of paper PMC7666118
